Assay results taken from PubChem BioAssay AID330 (DTP/NCI, 2004).
The list does not hold the whole screen: it is rich in T/C values a quarter to a half above the control, in often repeated tests (any T/C) and in doses without a T/C. Other doses and runs of a compound stand elsewhere. T/C is the treated group as % of the vehicle group. Some entries give survivors of the animals treated and no T/C: the source files T/C as zero there, which appears to mark a toxic dose or a test without result, not a measured value. Some doses without a T/C left all or most animals alive at the check, yet need not have been tolerated: the source hardly ever lists a survival T/C far under the control, and the zero likely stands for such cases as well. Survivors were counted at the toxicity check, usually on the fifth day, unless a day is given; later deaths do not show. Schedules are NCI's codes, taken here to give the interval after Q, in days (D) or hours (H), and the number of doses after X. Some doses were run more than once; their values stand side by side, smallest first. Where survival is the endpoint, this PubChem deposit counts one and a half times the control or more as active, and values a quarter to a half above the control carry no call in these data; other NCI protocols may use other cut-offs. Some T/C values are followed by the survivors on the day toxicity was checked, most often the fifth; where none is given, no animal had died by that day.

Test system: P388 leukemia ip, CD2F1 mice, survival T/C
Assay: NCI In Vivo Anticancer Drug Screen. Data for tumor model P388 Leukemia (intraperitoneal) in CD2F1 (CDF1) mice
Details: T/C endpoint: median survival time, higher T/C = longer survival
[1] = dose: 400.0 mg/kg/injection, schedule: Q04DX003 (ip), vehicle: saline with Tween-80
[2] = dose: 200.0 mg/kg/injection, schedule: Q01DX005 (ip), vehicle: Klucel (hydroxypropylcellulose) (HPC)
[3] = dose: 200.0 mg/kg/injection, schedule: Q01DX009 (ip), vehicle: saline with Tween-80
[4] = dose: 50.0 mg/kg/injection, schedule: Q01DX009 (ip), vehicle: saline with Tween-80
[5] = dose: 100.0 mg/kg/injection, schedule: Q01DX009 (ip), vehicle: Klucel (hydroxypropylcellulose) (HPC)
[6] = dose: 200.0 mg/kg/injection, schedule: Q01DX005 (ip), vehicle: saline

Structure (SMILES): COc1cccc2c1C(=O)c1c(O)c3c(c(O)c1C2=O)C[C@@](O)(C(C)NCCCO)C[C@@H]3OC1CC(N)C(O)C(C)O1 (some centres undefined)
- T/C (dose: 1.0 mg/kg/injection, schedule: Q01DX009 (ip), vehicle: water): 144 % of control
- survivor count (dose: 32.0 mg/kg/injection, schedule: Q01DX009 (ip), vehicle: water): 6 of 6

Structure (SMILES): CC(=O)[O][Hg][c]1c(N)c(Cl)cc(C)c1F
- survivor count (dose: 12.5 mg/kg/injection, schedule: Q01DX009 (ip), vehicle: Klucel (hydroxypropylcellulose) (HPC)): 3 of 5
- survivor count (dose: 25.0 mg/kg/injection, schedule: Q01DX009 (ip), vehicle: Klucel (hydroxypropylcellulose) (HPC)): 0 of 6

Structure (SMILES): Cc1cc(O)c2c(c1O)C(=O)C13C(=C2O)C(=O)C2C(O)C1C1C(O)C3C(=O)C3=C(O)c4c(O)cc(C)c(O)c4C(=O)C321 (centres undefined)
- T/C (dose: 1.56 mg/kg/injection, schedule: Q01DX009 (ip), vehicle: saline with Tween-80): 127 % of control
- T/C (dose: 3.0 mg/kg/injection, schedule: Q01DX005 (ip), vehicle: saline with Tween-80): 128 % of control
- T/C (dose: 3.13 mg/kg/injection, schedule: Q01DX009 (ip), vehicle: saline with Tween-80): 134 % of control
- T/C (dose: 6.0 mg/kg/injection, schedule: Q01DX005 (ip), vehicle: saline with Tween-80): 128 and 131 % of control
- survivor count (dose: 6.25 mg/kg/injection, schedule: Q01DX009 (ip), vehicle: saline with Tween-80): 4 of 6
- survivor count (dose: 12.0 mg/kg/injection, schedule: Q01DX005 (ip), vehicle: saline with Tween-80): 0 of 10 and 5 of 6

Structure (SMILES): C/C(N)=C\C#N
- survivor count (dose: 200.0 mg/kg/injection, schedule: Q04DX003 (ip), vehicle: saline with Tween-80): 0 of 6
- survivor count [1]: 0 of 6

Structure (SMILES): O=c1[nH]cnc(O)c1C1C=CC=CC=C1
- survivor count [2]: 1 of 6

Structure (SMILES): CCOC(=O)CC(C)(O)C1CC1 (centres undefined)
- T/C (dose: 400.0 mg/kg/injection, schedule: Q01DX009 (ip), vehicle: Klucel (hydroxypropylcellulose) (HPC)): 125 % of control

Structure (SMILES): Nc1nc(=S)c2[nH]c(N=Nc3ccc(S(N)(=O)=O)cc3)nc2[nH]1
- T/C (dose: 6.25 mg/kg/injection, schedule: Q04DX003 (ip), vehicle: Klucel (hydroxypropylcellulose) (HPC)): 140 % of control
- T/C (dose: 12.5 mg/kg/injection, schedule: Q04DX003 (ip), vehicle: Klucel (hydroxypropylcellulose) (HPC)): 133 % of control
- T/C (dose: 25.0 mg/kg/injection, schedule: Q04DX003 (ip), vehicle: Klucel (hydroxypropylcellulose) (HPC)): 133 % of control
- T/C (dose: 50.0 mg/kg/injection, schedule: Q04DX003 (ip), vehicle: Klucel (hydroxypropylcellulose) (HPC)): 143 % of control
- survivor count (dose: 100.0 mg/kg/injection, schedule: Q04DX003 (ip), vehicle: Klucel (hydroxypropylcellulose) (HPC)): 3 of 6

Structure (SMILES): CCCCCCCCCCCC[N+](C)(CCS(=O)(=O)[O-])Cc1ccccc1 (centres undefined)
- T/C (dose: 50.0 mg/kg/injection, schedule: Q01DX005 (ip), vehicle: saline with Tween-80): 137 % of control
- survivor count (dose: 200.0 mg/kg/injection, schedule: Q01DX005 (ip), vehicle: saline with Tween-80): 2 of 6

Structure (SMILES): COC1=C(C)C(=O)c2[nH]ccc2C1=O
- survivor count (dose: 200.0 mg/kg/injection, schedule: Q04DX002 (ip), vehicle: saline with Tween-80): 4 of 6
- survivor count (dose: 400.0 mg/kg/injection, schedule: Q04DX002 (ip), vehicle: saline with Tween-80): 0 of 6

Structure (SMILES): N#Cc1c(NC(=O)Nc2ccc(F)cc2F)sc(=S)c2c1CCCC2
- survivor count [3]: 0 of 6

Structure (SMILES): CP(C)(=S)[S][Sn]([CH3])([CH3])[S]P(C)(C)=S
- T/C (dose: 50.0 mg/kg/injection, schedule: Q01DX005 (ip), vehicle: Klucel (hydroxypropylcellulose) (HPC), evaluated on day 20): 106 [4 of 6 alive], 120 [5 of 6 alive], 121 % of control [5 of 6 alive]
- T/C (dose: 50.0 mg/kg/injection, schedule: Q01DX005 (ip), vehicle: Klucel (hydroxypropylcellulose) (HPC), evaluated on day 30): 132 % of control
- survivor count (dose: 100.0 mg/kg/injection, schedule: Q01DX005 (ip), vehicle: Klucel (hydroxypropylcellulose) (HPC)): 5 of 6
- survivor count [2]: 6 of 6

Structure (SMILES): CCOC(=O)C(C(C)=O)C(=O)C(C)(C)C (centres undefined)
- survivor count [4]: 6 of 6

Structure (SMILES): Cc1cccc2c(/C=C/c3ccc(N(C)C)cc3)ccnc12
- survivor count [5]: 6 of 6

Structure (SMILES): N#C/C(=C/c1ccco1)c1ccccc1
- survivor count (dose: 50.0 mg/kg/injection, schedule: Q01DX009 (ip), vehicle: Klucel (hydroxypropylcellulose) (HPC)): 1 of 6 and 6 of 6
- survivor count [5]: 1 of 6
- survivor count (dose: 200.0 mg/kg/injection, schedule: Q01DX009 (ip), vehicle: Klucel (hydroxypropylcellulose) (HPC)): 0 of 6

Structure (SMILES): C=C=C(C)C(C(C)C)N1CCCC1 (centres undefined)
- survivor count [6]: 0 of 6

Structure (SMILES): CC(C)OC(CCCl)c1ccc(Cl)cc1 (centres undefined)
- survivor count [1]: 2 of 6

Structure (SMILES): CC(=O)c1cc(I)c(O)c2ncccc12
- survivor count [4]: 0 of 6

Structure (SMILES): FC(F)Oc1ccccc1
- T/C [3]: 135 % of control

Structure (SMILES): CC(=S)NC(O)C(=O)c1ccccc1 (centres undefined)
- T/C [4]: 135 % of control
- T/C (dose: 100.0 mg/kg/injection, schedule: Q01DX009 (ip), vehicle: saline with Tween-80): 129 and 133 % of control [5 of 6 alive]
- T/C [3]: 126 [5 of 6 alive] and 134 % of control
- T/C (dose: 400.0 mg/kg/injection, schedule: Q01DX009 (ip), vehicle: saline with Tween-80): 128 % of control [5 of 6 alive]

Structure (SMILES): C=C1C(=O)O[C@H]2CC(C)C3C[C@@H](O)OC(O)[C@]3(C)C[C@@H]12 (some centres undefined)
- survivor count (dose: 19.0 mg/kg/injection, schedule: Q01DX005 (ip), vehicle: Klucel (hydroxypropylcellulose) (HPC)): 4 of 6

Structure (SMILES): C=C(CN(C)C)C(=O)c1ccc(C(=O)C(=C)CN(C)C)cc1
- survivor count (dose: 6.25 mg/kg/injection, schedule: Q01DX005 (ip), vehicle: saline): 3 of 6
- survivor count (dose: 12.5 mg/kg/injection, schedule: Q01DX005 (ip), vehicle: saline): 0 of 6
- survivor count (dose: 25.0 mg/kg/injection, schedule: Q01DX005 (ip), vehicle: saline): 0 of 6
- survivor count (dose: 50.0 mg/kg/injection, schedule: Q01DX005 (ip), vehicle: saline): 0 of 6
- survivor count (dose: 100.0 mg/kg/injection, schedule: Q01DX005 (ip), vehicle: saline): 0 of 6
- survivor count [6]: 0 of 6

Structure (SMILES): ClCSCc1ccccc1
- survivor count (dose: 100.0 mg/kg/injection, schedule: Q01DX009 (ip), vehicle: other): 1 of 6
- survivor count (dose: 200.0 mg/kg/injection, schedule: Q01DX009 (ip), vehicle: other): 0 of 6

Structure (SMILES): C=CC1(OC)CC1CO (centres undefined)
- survivor count (dose: 400.0 mg/kg/injection, schedule: Q01DX001 (ip), vehicle: Klucel (hydroxypropylcellulose) (HPC)): 2 of 6

Structure (SMILES): CCN(CC)CCOC(=O)C(c1ccccc1)C1(O)CCCCC1 (centres undefined)
- survivor count [6]: 0 of 5

Structure (SMILES): CC(=O)NC1C=CC(=O)O1 (centres undefined)
- T/C (dose: 3.1 mg/kg/injection, schedule: Q01DX010 (ip), vehicle: saline): 136 % of control
- T/C (dose: 4.7 mg/kg/injection, schedule: Q01DX010 (ip), vehicle: saline): 145 % of control
- T/C (dose: 7.0 mg/kg/injection, schedule: Q01DX010 (ip), vehicle: saline): 136 % of control

Structure (SMILES): O=C1NC(=O)C([N+](=O)[O-])C(=O)N1
- survivor count (dose: 100.0 mg/kg/injection, schedule: Q01DX001 (ip), vehicle: saline): 1 of 6 and 2 of 6
- survivor count (dose: 200.0 mg/kg/injection, schedule: Q01DX001 (ip), vehicle: saline): 0 of 6
- survivor count (dose: 400.0 mg/kg/injection, schedule: Q01DX001 (ip), vehicle: saline): 0 of 6

Structure (SMILES): CC(C)(C)c1cc(C(C)(C)C)c2oc(C(=O)O)cc(=O)c2c1
- survivor count (dose: 200.0 mg/kg/injection, schedule: Q01DX009 (ip), vehicle: saline): 0 of 6
